In article PMC5996148:
Values joined by “and” are separate entries in the source; they are usually repeats but may differ in a detail not shown here. Equal values may be shown once. The list shows a part of the results. For some assays here: The source does not settle which construct or isoform was used.

Sequences of proteins named here, by UniProt entry; tags and fusion partners are left off. A change or cut given only in a name is not applied to a line headed by its entry.
UniProt P08034: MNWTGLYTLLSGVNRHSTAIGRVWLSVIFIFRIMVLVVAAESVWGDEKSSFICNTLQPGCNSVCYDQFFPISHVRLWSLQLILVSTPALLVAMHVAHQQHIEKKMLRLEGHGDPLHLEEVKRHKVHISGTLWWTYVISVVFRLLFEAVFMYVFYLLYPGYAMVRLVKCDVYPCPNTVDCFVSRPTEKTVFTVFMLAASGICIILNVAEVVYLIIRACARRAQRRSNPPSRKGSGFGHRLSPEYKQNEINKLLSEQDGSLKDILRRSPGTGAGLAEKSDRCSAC

Experiments:
Experiment in all cases: protein microarray (ProtoArray v5.0), streptavidin-Alexa Fluor 647
Details in all cases: 3'-biotin; 20 mM Tris (pH 7.5), 5 mM MgCl2, 100 mM KCl, 0.1% Tween-20, A/T-rich and random oligonucleotide blockers; temperature not stated; high values mean tight binding
GDI1 (human) = test system: GDI1 (human)
[1] = test system: GDP-mannose 4,6 dehydratase (human)
GDPD3 (human) = test system: GDPD3 (human)
GDPD5 (human) = test system: GDPD5 (human)
GFPT1 (human) = test system: GFPT1 (human)
GGA2 (human) = test system: GGA2 (human)
GGPS1 (human) = test system: GGPS1 (human)
GGT6 (human) = test system: GGT6 (human)
GH1 (human) = test system: GH1 (human)
GHRL (human) = test system: GHRL (human)
GIF (human) = test system: GIF (human)
GIMAP6 (human) = test system: GIMAP6 (human)
GIP (human) = test system: GIP (human)
GIPC2 (human) = test system: GIPC2 (human)
GIYD2 (human) = test system: GIYD2 (human)
GJB1 = GJB1 (UniProt P08034)
GJB5 (human) = test system: GJB5 (human)
GK3P (human) = test system: GK3P (human)
GLO1 (human) = test system: GLO1 (human)
GLOD4 = biological target: T1, GLOD4 (UniProt Q9HC38)
T1 sequence: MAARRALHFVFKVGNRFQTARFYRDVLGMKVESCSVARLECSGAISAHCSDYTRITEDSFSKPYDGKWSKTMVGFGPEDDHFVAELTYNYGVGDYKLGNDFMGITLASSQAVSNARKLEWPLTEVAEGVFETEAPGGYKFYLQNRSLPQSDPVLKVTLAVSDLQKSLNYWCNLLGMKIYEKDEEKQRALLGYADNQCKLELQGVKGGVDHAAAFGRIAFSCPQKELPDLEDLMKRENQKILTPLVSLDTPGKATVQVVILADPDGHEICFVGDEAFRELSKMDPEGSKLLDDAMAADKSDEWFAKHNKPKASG

Sequence “GGGAGGCTGAGGCAGG [G4-1 biotinylated (PQS2)]” has a binding signal (GDI1 (human)) of -0.306 z-score, a binding signal [1] of -0.343 z-score and a binding signal (GDPD3 (human)) of -0.29 z-score. It also gave a binding signal (GDPD5 (human)) of -0.335 z-score, a binding signal (GFPT1 (human)) of -0.317 z-score and a binding signal (GGA2 (human)) of -0.348 z-score. For the same sequence, the binding signal (GGPS1 (human)) was -0.316 z-score, the binding signal (GGT6 (human)) was -0.311 z-score and the binding signal (GH1 (human)) was -0.292 z-score. The binding signal (GHRL (human)) was -0.289 z-score, the binding signal (GIF (human)) was -0.336 z-score and the binding signal (GIMAP6 (human)) was -0.339 z-score. The binding signal (GIP (human)) was -0.287 z-score, the binding signal (GIPC2 (human)) was -0.263 z-score and the binding signal (GIYD2 (human)) was -0.273 z-score. For the same sequence, the binding signal (GJB1) was -0.305 z-score, the binding signal (GJB5 (human)) was -0.33 z-score and the binding signal (GK3P (human)) was -0.242 z-score. The binding signal (GLO1 (human)) was -0.308 z-score and -0.278 z-score and the binding signal (GLOD4) was -0.263 z-score.
